# Measurements: publication PMC4066819
# Amino acid sequences for entries named in this document (tags omitted).
# UniProt P37238: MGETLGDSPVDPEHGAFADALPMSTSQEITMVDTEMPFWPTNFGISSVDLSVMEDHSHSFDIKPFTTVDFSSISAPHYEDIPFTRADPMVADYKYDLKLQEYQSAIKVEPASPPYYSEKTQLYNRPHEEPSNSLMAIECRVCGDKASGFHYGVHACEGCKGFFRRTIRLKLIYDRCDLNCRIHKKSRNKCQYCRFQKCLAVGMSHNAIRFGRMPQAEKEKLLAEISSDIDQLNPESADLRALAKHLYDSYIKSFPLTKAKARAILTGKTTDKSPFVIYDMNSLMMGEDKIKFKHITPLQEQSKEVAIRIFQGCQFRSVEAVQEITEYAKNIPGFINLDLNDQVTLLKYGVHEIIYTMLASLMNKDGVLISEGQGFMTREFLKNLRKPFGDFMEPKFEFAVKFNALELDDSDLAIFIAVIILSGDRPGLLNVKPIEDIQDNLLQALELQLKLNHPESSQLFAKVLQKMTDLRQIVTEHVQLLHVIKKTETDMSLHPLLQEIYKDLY
# UniProt E9QAP7: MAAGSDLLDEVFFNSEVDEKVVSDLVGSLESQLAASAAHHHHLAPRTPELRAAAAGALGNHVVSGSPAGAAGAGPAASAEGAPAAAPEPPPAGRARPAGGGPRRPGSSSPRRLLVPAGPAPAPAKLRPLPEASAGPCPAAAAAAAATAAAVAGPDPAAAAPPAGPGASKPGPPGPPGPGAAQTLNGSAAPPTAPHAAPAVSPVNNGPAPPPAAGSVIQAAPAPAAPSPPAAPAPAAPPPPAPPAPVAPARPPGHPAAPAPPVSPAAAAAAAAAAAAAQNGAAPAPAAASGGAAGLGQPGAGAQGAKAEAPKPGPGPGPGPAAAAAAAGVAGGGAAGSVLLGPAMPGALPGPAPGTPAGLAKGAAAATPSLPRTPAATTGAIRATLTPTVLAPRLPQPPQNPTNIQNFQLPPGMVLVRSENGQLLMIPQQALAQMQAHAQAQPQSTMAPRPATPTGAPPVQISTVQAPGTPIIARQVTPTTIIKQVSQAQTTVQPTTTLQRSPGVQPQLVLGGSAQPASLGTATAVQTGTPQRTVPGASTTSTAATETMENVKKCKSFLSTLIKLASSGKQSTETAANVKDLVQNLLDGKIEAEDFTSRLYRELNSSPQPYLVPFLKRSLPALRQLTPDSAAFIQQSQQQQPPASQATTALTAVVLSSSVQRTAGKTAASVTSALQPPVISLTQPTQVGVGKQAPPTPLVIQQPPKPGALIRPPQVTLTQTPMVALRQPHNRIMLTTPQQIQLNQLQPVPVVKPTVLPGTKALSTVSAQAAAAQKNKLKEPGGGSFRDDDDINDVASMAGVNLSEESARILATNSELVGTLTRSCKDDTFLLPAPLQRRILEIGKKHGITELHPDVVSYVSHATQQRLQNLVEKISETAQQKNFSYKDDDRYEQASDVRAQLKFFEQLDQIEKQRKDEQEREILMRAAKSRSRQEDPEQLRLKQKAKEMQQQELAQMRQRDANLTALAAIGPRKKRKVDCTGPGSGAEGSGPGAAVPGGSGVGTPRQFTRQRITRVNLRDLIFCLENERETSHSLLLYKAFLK
# UniProt Q8C092: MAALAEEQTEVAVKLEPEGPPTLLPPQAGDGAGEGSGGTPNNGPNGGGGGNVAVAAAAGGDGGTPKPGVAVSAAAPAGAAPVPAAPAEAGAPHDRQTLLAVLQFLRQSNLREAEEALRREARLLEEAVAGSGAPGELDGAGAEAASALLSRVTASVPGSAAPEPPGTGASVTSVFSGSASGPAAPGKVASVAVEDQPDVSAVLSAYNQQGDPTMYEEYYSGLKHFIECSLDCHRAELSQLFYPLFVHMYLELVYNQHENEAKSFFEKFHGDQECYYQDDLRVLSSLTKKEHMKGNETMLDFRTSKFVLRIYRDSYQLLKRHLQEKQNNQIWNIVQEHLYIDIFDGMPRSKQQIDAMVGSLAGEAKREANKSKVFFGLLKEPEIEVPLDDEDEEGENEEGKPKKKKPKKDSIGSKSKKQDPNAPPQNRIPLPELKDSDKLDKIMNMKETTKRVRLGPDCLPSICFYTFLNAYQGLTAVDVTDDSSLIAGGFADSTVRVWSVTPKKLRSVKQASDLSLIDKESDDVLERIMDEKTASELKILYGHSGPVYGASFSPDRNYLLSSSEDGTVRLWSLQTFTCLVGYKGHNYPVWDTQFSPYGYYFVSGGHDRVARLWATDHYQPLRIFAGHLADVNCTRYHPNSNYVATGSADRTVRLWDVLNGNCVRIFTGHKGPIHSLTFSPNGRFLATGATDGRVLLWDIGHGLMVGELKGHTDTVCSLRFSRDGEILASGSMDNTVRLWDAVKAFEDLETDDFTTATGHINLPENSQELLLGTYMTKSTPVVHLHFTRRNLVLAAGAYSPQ
# UniProt Q62311: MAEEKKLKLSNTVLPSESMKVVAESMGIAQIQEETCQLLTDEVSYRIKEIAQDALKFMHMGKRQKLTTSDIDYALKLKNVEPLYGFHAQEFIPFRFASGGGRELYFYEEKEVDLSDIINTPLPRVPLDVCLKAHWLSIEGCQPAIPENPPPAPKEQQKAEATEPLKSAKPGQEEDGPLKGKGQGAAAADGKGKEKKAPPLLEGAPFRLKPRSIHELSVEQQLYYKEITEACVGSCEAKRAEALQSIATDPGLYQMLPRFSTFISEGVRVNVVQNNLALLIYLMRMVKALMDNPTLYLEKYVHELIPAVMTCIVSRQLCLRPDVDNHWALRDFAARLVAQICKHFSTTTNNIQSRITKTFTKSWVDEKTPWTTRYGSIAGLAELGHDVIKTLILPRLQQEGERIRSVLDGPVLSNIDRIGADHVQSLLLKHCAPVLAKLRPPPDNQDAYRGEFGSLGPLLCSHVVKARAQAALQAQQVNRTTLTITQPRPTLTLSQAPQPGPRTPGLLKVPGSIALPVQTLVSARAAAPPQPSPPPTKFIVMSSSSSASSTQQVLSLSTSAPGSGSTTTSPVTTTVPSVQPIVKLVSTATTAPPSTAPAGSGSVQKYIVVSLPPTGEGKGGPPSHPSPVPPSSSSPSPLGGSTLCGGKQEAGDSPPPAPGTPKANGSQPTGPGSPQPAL
# UniProt Q8K0H5: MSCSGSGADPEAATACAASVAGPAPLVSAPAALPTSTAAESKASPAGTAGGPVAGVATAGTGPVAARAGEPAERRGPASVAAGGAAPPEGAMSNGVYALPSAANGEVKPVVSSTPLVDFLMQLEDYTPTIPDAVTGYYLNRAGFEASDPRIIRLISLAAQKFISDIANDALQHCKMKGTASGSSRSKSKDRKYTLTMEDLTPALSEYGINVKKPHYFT
# No constants are given. Whether binding was seen depends on the method and setting. In cells and extracts the contact can be indirect. Here binding means that the protein was enriched with, or labelled near, the bait; the list need not be complete. For some of these results: No binding means not detected with the bait. Tags and fused reporters may be left off the sequences shown.
# T1: FLAG-V5-TAF7L (TATA-binding protein associated factor 7L, doubly tagged) (UniProt Q9D3R9)
# T1 sequence: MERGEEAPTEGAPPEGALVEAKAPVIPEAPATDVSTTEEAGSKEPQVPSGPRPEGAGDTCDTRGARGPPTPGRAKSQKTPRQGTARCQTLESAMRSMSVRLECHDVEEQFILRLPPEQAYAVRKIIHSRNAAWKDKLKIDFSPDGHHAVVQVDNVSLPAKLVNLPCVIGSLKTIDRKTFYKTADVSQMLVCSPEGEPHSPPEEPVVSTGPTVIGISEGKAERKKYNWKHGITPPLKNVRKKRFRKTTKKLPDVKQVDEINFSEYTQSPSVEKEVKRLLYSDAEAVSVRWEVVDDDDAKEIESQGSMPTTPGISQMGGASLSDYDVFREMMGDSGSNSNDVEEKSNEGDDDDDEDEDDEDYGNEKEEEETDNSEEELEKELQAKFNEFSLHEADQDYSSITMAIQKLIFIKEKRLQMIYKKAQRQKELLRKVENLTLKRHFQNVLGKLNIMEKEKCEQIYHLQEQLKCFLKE
# T2: FLAG-V5-TAF7L (TATA-binding protein associated factor 7L, doubly tagged), Q9D3R9
# T2 chain: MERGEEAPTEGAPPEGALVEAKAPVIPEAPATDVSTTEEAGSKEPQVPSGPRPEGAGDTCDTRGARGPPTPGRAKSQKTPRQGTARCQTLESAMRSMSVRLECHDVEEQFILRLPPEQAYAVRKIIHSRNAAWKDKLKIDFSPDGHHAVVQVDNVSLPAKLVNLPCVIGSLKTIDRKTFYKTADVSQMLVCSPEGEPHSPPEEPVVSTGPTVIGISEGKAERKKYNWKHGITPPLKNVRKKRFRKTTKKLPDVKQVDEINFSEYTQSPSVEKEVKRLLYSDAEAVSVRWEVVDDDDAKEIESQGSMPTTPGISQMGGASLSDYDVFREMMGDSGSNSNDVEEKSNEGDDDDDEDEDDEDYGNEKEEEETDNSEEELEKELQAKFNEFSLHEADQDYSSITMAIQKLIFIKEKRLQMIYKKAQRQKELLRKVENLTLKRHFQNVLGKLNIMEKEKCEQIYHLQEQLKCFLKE
# Biological target: T1, FLAG-V5-TAF7L (TATA-binding protein associated factor 7L, doubly tagged)
# Test: affinity purification with mass spectrometry; sequential immunoprecipitation (ANTI-FLAG M2 gel, FLAG peptide elution, then anti-V5 agarose, glycine pH 2.5 elution) from 3 mg whole-cell extract of post-differentiated FLAG-V5-GFP/TAF7L C3H10T1/2 adipocytes; 0.3 M NaCl, 0.2% NP-40, 4°C overnight; LC-MS/MS of the eluate
# Conditions: not given
row,binding,Molecule
1,binds,PPARγ (from UniProt P37238 1-505)
2,binds,TAF4 (from UniProt E9QAP7 1-1042)
3,binds,TAF5 (from UniProt Q8C092 1-801)
4,binds,TAF6 (from UniProt Q62311 1-678)
5,binds,TAF10 (from UniProt Q8K0H5 1-218)
6,no binding,"FKBP15 (protein, UniProt Q6P9Q6 1-1216) MFGAGDEDDTDFLSPSGGAKLASLFGLDQATMGHGNEFFQYTAPKQPKKGQGTAAGNQTAPKPAPATTGTSSVLFATAVHAYRYINGQYAKQGKFGAAVLGNHTSREYRILLYISQQQPVTVATIHLNFELMVRPNNYSTFYDDQRQNWSIMFESEKAAVSFNKQVCVAKCNSISSLDAVLCQDLVAAEGPAVETGDSLEVAYTGWLLQNHVLGQVFDSTANKDKPLRLKLGSGKVVKGLEDGLLGMKKGGKRLIITPSACAAGSEGVIGWTQPTDSILVFEVEVRRVKFARDSGSDGHSVSSRDSAAPSPIPASDSLSADPVVTPLPLPLKPGEPGLRSKSNSLSEQLTVNSNPDTVKAKLISRMAKMGQPMLPILPPQLDSNDSETEDATVLRGAGQSLVTPSIQPSLQPAHPVLPQMASQAPQPSGSGLQTPSAALMQAVSLDSHSAVSGNAQNFQPYAGVQAYAYPQTPSVTSQLQPVRPLYPAPLSQAPHFQGSGDMMSFLMTEARQHNTEIRMAVNKVADKMDHLMTKVEELQKHSSGNSMLLPSMSVTMETSMIMSNIQRIIQENERLKQELLEKSSRIEEQNDKISDLIERNQRYVEQSNLMMEKRNNSLQTATENTQARILHAEQEKAKVTEELAAATAQVSHLQLKMTAHQKKETELQLQLTDNLKETDLLRGHVTRLQADLSELREASEQTQTKFKSEKQSRRQLELKVTSLEEELTDLRAEKTSLEKNLSERKKKSAQERCQAEAEMDEIRKSHQEELDRLRQLLKKARVSTDQAAAEQLTLAQAELQSQWEAKCEQLLASARDEHLQQYREVCAQRDAHQQKLALLQDECLALQAQIAAFTEQKEHMQRLEKTKSQAPAGRAAADPSEKVKKIMNQVFQSLRGEFELEESYDGGTILRTIMHTIKMVTLQLLNHQEEEEEEEEEEEEEKKPLRPSLEQPGPATPGMPPAPPSGETQEAPEVLPEQVVGETTPLPLQALPTPENGAQTRKGEPAEAEVPSEIKDSSLPPQPAGIPAHRVLGPPTSIPPKPPGPVTMDSESEEMLAADQRTVQPNGLLGEEHVREVATDGLLQGNSRRLSLTPDPEKGEPPALDPESQGGEAQPPECKQAEDVSSSGPRETLLDTELASAAAGTSLRHNQDSQHCSLSGDEEDELFKGATLKVPRPTAQPEEEDEDEVSMKGRPPPTPLFGDDDDDDDDDIGWLG"

# Biological target: T2, FLAG-V5-TAF7L (TATA-binding protein …)
# Test: as above
# Conditions: remark: other sources report otherwise
row,binding,Molecule
1,binds,"TBP, P29037 1-316 (protein) MDQNNSLPPYAQGLASPQGAMTPGIPIFSPMMPYGTGLTPQPIQNTNSLSILEEQQRQQQQQQQQQQQQQAVATAAASVQQSTSQQPTQGASGQTPQLFHSQTLTTAPLPGTTPLYPSPMTPMTPITPATPASESSGIVPQLQNIVSTVNLGCKLDLKTIALRARNAEYNPKRFAAVIMRIREPRTTALIFSSGKMVCTGAKSEEQSRLAARKYARVVQKLGFPAKFLDFKIQNMVGSCDVKFPIRLEGLVLTHQQFSSYEPELFPGLIYRMIKPRIVLLIFVSGKVVLTGAKVRAEIYEAFENIYPILKGFRKTT"
